From ChEMBL document CHEMBL1156240, “Papyriferic acid derivatives as reversal agents of multidrug resistance in cancer cells” (Bioorg Med Chem, 2010) come the findings set out here.

SMILES strings stand for the structures.

The subject of the assay is KB. Put plainly: Cytotoxicity against human KB cells after 48 hrs by MTT assay. The class given is functional, cell-based. In a few lines: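 Cells grown at 37 °C in 5% CO2; KB in DMEM with 10% FBS, KB-C2 kept with 10% FBS plus 2 µg/mL colchicine. Seeded 5 × 10³ cells/well, preincubated 24 h, then compounds at 2, 10, 50, 100 µg/mL in medium (0.5% DMSO final) for 48 h. MTT 0.5 mg/mL for 4 h, formazan dissolved in DMSO, OD 540 nm; IC50 relative to vehicle controls.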
A general note: Formazan colour is commonly taken as a measure of viable cells.

Broadly, the IC50 is the midpoint of a concentration-inhibition curve. `COc1cc2c(c(OC)c1OC)-c1ccc(OC)c(=O)cc1[C@@H](NC(C)=O)CC2` [COLCHICINE]: the IC50 was 13 nM.
